Measured values reported in paper PMC13260207.
Results are given in words; binding and its absence hold for the method and conditions named. Binding seen in cells or lysates may run through a third protein.

Target: wild-type p53 (p53^wt), endogenous (human (endogenous in A549)) (UniProt P04637)
Test: proximity ligation; PLA in fixed, permeabilised cells (MDA-MB-231 for p53^mt; p53^wt cells) treated with vehicle or 30 μM cisplatin for 24 h; nuclear foci counted

binding	Binder
no binding	PITP membrane-associated 1 (PITPNM1), endogenous (protein, UniProt O00562 1-1244) MLIKEYHILLPMSLDEYQVAQLYMIQKKSREESSGEGSGVEILANRPYTDGPGGSGQYTHKVYHVGSHIPGWFRALLPKAALQVEEESWNAYPYTRTRYTCPFVEKFSIEIETYYLPDGGQQPNVFNLSGAERRQRILDTIDIVRDAVAPGEYKAEEDPRLYHSVKTGRGPLSDDWARTAAQTGPLMCAYKLCKVEFRYWGMQAKIEQFIHDVGLRRVMLRAHRQAWCWQDEWTELSMADIRALEEETARMLAQRMAKCNTGSEGSEAQPPGKPSTEARSAASNTGTPDGPEAPPGPDASPDASFGKQWSSSSRSSYSSQHGGAVSPQSLSEWRMQNIARDSENSSEEEFFDAHEGFSDSEEVFPKEMTKWNSNDFIDAFASPVEAEGTPEPGAEAAKGIEDGAQAPRDSEGLDGAGELGAEACAVHALFLILHSGNILDSGPGDANSKQADVQTLSSAFEAVTRIHFPEALGHVALRLVPCPPICAAAYALVSNLSPYSHDGDSLSRSQDHIPLAALPLLATSSSRYQGAVATVIARTNQAYSAFLRSPEGAGFCGQVALIGDGVGGILGFDALCHSANAGTGSRGSSRRGSMNNELLSPEFGPVRDPLADGVEGLGRGSPEPSALPPQRIPSDMASPEPEGSQNSLQAAPATTSSWEPRRASTAFCPPAASSEAPDGPSSTARLDFKVSGFFLFGSPLGLVLALRKTVMPALEAAQMRPACEQIYNLFHAADPCASRLEPLLAPKFQAIAPLTVPRYQKFPLGDGSSLLLADTLQTHSSLFLEELEMLVPSTPTSTSGAFWKGSELATDPPAQPAAPSTTSEVVKILERWWGTKRIDYSLYCPEALTAFPTVTLPHLFHASYWESADVVAFILRQVIEKERPQLAECEEPSIYSPAFPREKWQRKRTQVKIRNVTSNHRASDTVVCEGRPQVLSGRFMYGPLDVVTLTGEKVDVYIMTQPLSGKWIHFGTEVTNSSGRLTFPVPPERALGIGVYPVRMVVRGDHTYAECCLTVVARGTEAVVFSIDGSFTASVSIMGSDPKVRAGAVDVVRHWQDSGYLIVYVTGRPDMQKHRVVAWLSQHNFPHGVVSFCDGLTHDPLRQKAMFLQSLVQEVELNIVAGYGSPKDVAVYAALGLSPSQTYIVGRAVRKLQAQCQFLSDGYVAHLGQLEAGSHSHASSGPPRAALGKSSYGVAAPVDFLRKQSQLLRSRGPSQAEREGPGTPPTTLARGKARSISLKLDSEE
no binding	PITP cytoplasmic 1 (PITPNC1), endogenous (protein, UniProt Q9UKF7 1-332) MLLKEYRICMPLTVDEYKIGQLYMISKHSHEQSDRGEGVEVVQNEPFEDPHHGNGQFTEKRVYLNSKLPSWARAVVPKIFYVTEKAWNYYPYTITEYTCSFLPKFSIHIETKYEDNKGSNDTIFDNEAKDVEREVCFIDIACDEIPERYYKESEDPKHFKSEKTGRGQLREGWRDSHQPIMCSYKLVTVKFEVWGLQTRVEQFVHKVVRDILLIGHRQAFAWVDEWYDMTMDEVREFERATQEATNKKIGIFPPAISISSIPLLPSSVRSAPSSAPSTPLSTDAPEFLSVPKDRPRKKSAPETLTLPDPEKKATLNLPGMHSSDKPCRPKSE
no binding	PITP membrane-associated 2 (PITPNM2), endogenous (protein, UniProt Q9BZ72 1-1349) MIIKEYRIPLPMTVEEYRIAQLYMIQKKSRNETYGEGSGVEILENRPYTDGPGGSGQYTHKVYHVGMHIPSWFRSILPKAALRVVEESWNAYPYTRTRFTCPFVEKFSIDIETFYKTDAGENPDVFNLSPVEKNQLTIDFIDIVKDPVPHNEYKTEEDPKLFQSTKTQRGPLSENWIEEYKKQVFPIMCAYKLCKVEFRYWGMQSKIERFIHDTGLRRVMVRAHRQAWCWQDEWYGLSMENIRELEKEAQLMLSRKMAQFNEDGEEATELVKHEAVSDQTSGEPPEPSSSNGEPLVGRGLKKQWSTSSKSSRSSKRGASPSRHSISEWRMQSIARDSDESSDDEFFDAHEDLSDTEEMFPKDITKWSSNDLMDKIESPEPEDTQDGLYRQGAPEFRVASSVEQLNIIEDEVSQPLAAPPSKIHVLLLVLHGGTILDTGAGDPSSKKGDANTIANVFDTVMRVHYPSALGRLAIRLVPCPPVCSDAFALVSNLSPYSHDEGCLSSSQDHIPLAALPLLATSSPQYQEAVATVIQRANLAYGDFIKSQEGMTFNGQVCLIGDCVGGILAFDALCYSNQPVSESQSSSRRGSVVSMQDNDLLSPGILMNAAHCCGGGGGGGGGGGSSGGGGSSGGSSLESSRHLSRSNVDIPRSNGTEDPKRQLPRKRSDSSTYELDTIQQHQAFLSSLHASVLRTEPCSRHSSSSTMLDGTGALGRFDFEITDLFLFGCPLGLVLALRKTVIPALDVFQLRPACQQVYNLFHPADPSASRLEPLLERRFHALPPFSVPRYQRYPLGDGCSTLLADVLQTHNAAFQEHGAPSSPGTAPASRGFRRASEISIASQVSGMAESYTASSIAQKAPDALSHTPSVRRLSLLALPAPSPTTPGPHPPARKASPGLERAPGLPELDIGEVAAKWWGQKRIDYALYCPDALTAFPTVALPHLFHASYWESTDVVSFLLRQVMRHDNSSILELDGKEVSVFTPSKPREKWQRKRTHVKLRNVTANHRINDALANEDGPQVLTGRFMYGPLDMVTLTGEKVDVHIMTQPPSGEWLYLDTLVTNNSGRVSYTIPESHRLGVGVYPIKMVVRGDHTFADSYITVLPKGTEFVVFSIDGSFAASVSIMGSDPKVRAGAVDVVRHWQDLGYLIIYVTGRPDMQKQRVVAWLAQHNFPHGVVSFCDGLVHDPLRHKANFLKLLISELHLRVHAAYGSTKDVAVYSAISLSPMQIYIVGRPTKKLQQQCQFITDGYAAHLAQLKYSHRARPARNTATRMALRKGSFGLPGQGDFLRSRNHLLRTISAQPSGPSHRHERTQSQADGEQRGQRSMSVAAGCWGRAMTGRLEPGAAAGPK
